No constants are given. Whether binding was seen depends on the method and setting. Binding seen in cells or lysates may run through a third protein. Some entries that bind do so weakly or less than the wild type. For part of these data: Sequences can lack the tags named with a protein.
Experiments:
Full-length GST-pRb [1] = biological target: T1, Full-length GST-pRb (UniProt P06400); test: pull-down; affinity chromatography: 40 mg mitotic HeLa extract on a 1 ml GST-Rb-Sepharose column, eluted with 300 mM NaCl; fractions assayed for PP1 activity, pool immunoblotted for the PP1 isoforms, then gel filtration on Superose 12; only the target purified
T1 sequence: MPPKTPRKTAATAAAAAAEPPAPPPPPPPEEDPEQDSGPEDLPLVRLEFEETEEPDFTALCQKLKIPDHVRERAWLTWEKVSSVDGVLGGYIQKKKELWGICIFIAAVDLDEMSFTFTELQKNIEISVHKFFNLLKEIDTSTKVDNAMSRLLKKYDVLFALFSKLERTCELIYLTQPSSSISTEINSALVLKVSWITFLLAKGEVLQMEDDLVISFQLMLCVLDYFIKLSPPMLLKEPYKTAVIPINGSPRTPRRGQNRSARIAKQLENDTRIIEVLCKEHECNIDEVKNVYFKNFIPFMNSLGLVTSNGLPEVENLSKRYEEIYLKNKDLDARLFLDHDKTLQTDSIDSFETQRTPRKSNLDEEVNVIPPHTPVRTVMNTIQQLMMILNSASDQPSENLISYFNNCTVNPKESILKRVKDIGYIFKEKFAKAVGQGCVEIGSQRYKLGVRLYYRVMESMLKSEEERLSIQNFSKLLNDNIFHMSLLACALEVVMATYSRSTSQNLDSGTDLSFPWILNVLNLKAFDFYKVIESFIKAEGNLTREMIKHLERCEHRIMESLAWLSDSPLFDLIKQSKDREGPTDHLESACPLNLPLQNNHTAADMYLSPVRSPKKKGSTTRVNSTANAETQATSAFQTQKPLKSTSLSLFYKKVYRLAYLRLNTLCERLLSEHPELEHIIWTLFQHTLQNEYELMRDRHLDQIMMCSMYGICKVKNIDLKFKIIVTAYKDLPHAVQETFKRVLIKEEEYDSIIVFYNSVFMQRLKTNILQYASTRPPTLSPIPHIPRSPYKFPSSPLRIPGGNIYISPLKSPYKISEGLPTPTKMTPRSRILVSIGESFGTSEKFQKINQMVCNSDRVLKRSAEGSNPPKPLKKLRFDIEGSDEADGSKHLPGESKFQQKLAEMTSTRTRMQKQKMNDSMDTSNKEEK

Amino acid sequences for entries named in this document (tags omitted). A change or cut given only in a name is not applied to a line headed by its entry.
UniProt P62136: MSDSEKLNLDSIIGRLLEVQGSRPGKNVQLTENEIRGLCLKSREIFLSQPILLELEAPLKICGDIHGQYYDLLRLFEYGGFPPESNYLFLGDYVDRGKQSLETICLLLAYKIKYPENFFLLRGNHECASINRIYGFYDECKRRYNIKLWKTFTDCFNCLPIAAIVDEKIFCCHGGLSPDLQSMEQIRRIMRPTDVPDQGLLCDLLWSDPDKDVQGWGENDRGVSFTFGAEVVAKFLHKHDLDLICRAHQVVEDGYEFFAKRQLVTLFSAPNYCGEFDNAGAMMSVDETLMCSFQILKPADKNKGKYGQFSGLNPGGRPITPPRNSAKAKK
UniProt P36873: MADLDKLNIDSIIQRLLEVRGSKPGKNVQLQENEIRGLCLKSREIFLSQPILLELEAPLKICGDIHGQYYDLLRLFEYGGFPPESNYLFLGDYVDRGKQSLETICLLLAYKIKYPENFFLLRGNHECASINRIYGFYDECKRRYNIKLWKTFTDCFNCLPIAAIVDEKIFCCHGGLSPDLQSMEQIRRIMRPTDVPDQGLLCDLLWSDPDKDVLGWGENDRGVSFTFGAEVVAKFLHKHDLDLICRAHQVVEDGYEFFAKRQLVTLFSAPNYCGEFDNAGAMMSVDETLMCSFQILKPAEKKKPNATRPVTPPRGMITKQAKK
UniProt P62140: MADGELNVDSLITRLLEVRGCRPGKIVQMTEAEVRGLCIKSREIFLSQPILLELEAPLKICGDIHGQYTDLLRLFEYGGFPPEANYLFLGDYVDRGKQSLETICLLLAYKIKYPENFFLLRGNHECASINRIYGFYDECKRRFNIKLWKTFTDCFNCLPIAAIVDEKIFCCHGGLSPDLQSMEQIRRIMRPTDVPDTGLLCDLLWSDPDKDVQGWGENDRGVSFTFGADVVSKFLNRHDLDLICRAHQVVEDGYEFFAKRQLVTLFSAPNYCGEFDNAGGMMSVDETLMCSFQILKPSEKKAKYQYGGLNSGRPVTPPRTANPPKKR

[2] = biological target: T2, pMAL-RbBP (Rb big pocket, residues 379-928) (UniProt P06400); test: pull-down; data not shown: affinity columns with GST- or pMAL-RbBP and GST- or pMAL-RbCT, mitotic or asynchronous HeLa extracts; PP1 activity peak, gel filtration; only the target purified
T2 sequence: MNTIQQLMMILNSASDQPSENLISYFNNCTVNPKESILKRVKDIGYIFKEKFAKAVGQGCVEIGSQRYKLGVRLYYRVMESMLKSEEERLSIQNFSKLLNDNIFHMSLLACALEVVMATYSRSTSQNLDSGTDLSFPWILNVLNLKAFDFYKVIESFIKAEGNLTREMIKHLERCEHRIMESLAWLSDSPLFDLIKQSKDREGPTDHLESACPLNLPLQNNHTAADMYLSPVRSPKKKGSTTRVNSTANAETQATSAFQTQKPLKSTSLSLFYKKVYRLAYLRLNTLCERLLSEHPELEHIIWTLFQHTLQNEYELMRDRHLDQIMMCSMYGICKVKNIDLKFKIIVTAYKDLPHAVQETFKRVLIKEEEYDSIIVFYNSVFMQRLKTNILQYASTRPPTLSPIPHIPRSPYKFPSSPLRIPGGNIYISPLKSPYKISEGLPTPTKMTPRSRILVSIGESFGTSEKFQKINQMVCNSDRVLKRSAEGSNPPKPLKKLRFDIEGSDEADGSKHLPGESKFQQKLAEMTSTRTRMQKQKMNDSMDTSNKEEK

[3] = biological target: T3, GST-Rb-C-terminal (RbCT, residues 792-928) (UniProt P06400); test: as above
T3 sequence: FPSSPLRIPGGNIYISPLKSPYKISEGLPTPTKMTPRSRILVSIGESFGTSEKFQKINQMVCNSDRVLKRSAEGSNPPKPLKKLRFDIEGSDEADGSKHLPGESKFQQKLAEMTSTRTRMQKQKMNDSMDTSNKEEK

[4] = biological target: T4, GST-Rb-big pocket (RbBP, residues 379-928) (UniProt P06400); test: as above
T4 sequence: T2 sequence

[5] = biological target: T5, pMAL-RbCT (Rb C-terminus, residues 792-928) (UniProt P06400); test: as above
T5 sequence: T3 sequence

Full-length GST-pRb [6] = biological target: T1, Full-length GST-pRb; test: pull-down; GST fusion proteins from bacterial extracts on glutathione-Sepharose beads (pre-treated with BSA), mixed with 2-3 mg of mitotic or asynchronous HeLa cell extract, 4°C 90 min, washed in 50 mM TRIS-HCl pH 7.5, 250 mM NaCl, 5 mM EDTA, 0.1 % Triton X-100; immunoblot with isoform-specific antibodies; only the target purified
[7] = biological target: T4, GST-Rb-big pocket (RbBP, residues 379-928); test: as above
[8] = biological target: T2, pMAL-RbBP (Rb big pocket, residues 379-928); test: pull-down; pMAL fusion proteins from bacterial extracts on Amylose resin, mixed with mitotic HeLa cell lysate (2.5 mg/PD), 4°C 90 min, washed in cell lysis buffer; immunoblot with isoform-specific antibodies; only the target purified
[9] = biological target: T5, pMAL-RbCT (Rb C-terminus, residues 792-928); test: as above

Measured: binding

PP1α catalytic subunit (from UniProt P62136 1-330) (enzyme)
binds: all assays above

PP1γ1 catalytic subunit (from UniProt P36873 1-323) (enzyme)
binds: all assays above

PP1δ catalytic subunit (from UniProt P62140 1-327) (enzyme)
binds: all assays above

— paper PMC1382259
